Data taken from paper PMC10163288.
This is one part of the list.

B1: il10ra_site1_sap_22_mot_HHH_b2_07145_000000158_0001_24_40_H_._HHH_b2_07052_0001_0000300025_0000001_0_0001 (protein)
chain: SSSSTEAAQLAIELMREAAEAHRRGDPEEARELLEEAERILEEGNNRVVLHNVRYLLKKVTSSSS
B2: il10ra_site1_sap_13_mot_HHH_b2_03827_000000021_0001_1_19_H_._HHH_b2_08297_af2_0001_0001200013_0000001_0_0001 (protein)
chain: SSSSSDREEVEELLEEAEERRKEGDRERVAELLLRALRIAYENKNEEALRLIWEVVRRLASSSSS
B3: il10ra_site1_normal_mot_a6c796b944619e241e020fd597ddb6da_0001_af2_000000092_0001_15_31_H_._HHH_b1_07083_0001_0000300023_0000001_0_af2pred_0001 (protein)
chain: SSSSSSTEEVRARALVIAAKQASNPDAARITLEVALEIARKLNDEELVEEIEELLEEYSSSSSSS
B4: il10ra_site1_sap_11_mot_HHH_b1_02881_000000046_0001_1_20_H_._HHH_b2_01251_0001_0000200007_0000002_0_0001 (protein)
chain: SSSSSSDELVQLTTELVELYREGDEEEVEKVAEELRRLAEELNNPMAAWIAEMMLRVLSSSSSSS
B5: il10ra_site1_sap_15_mot_HHH_b1_01467_000000089_0001_1_18_H_._HHH_b1_05739_0001_0000300043_0000001_0_0001 (protein)
chain: SSSSNLEEYVKLALRFARHLAKHNPEAARALLEAMLEIVKKHGNEELAKEIEKLIEELESSSSSS
B6: il10ra_site1_sap_14_mot_ems_3hM_3637_000000290_0001_1_19_H_._HHH_b1_03012_0001_0000200018_0000001_0_0001 (protein)
chain: SSSSSEAERSAEFLLRAAREARKNGNEEYARLALRFAIHLARWAGNEELLEELEKLLEELGSSSS
B7: il10ra_site1_sap_26_mot_HHH_b2_03425_000000200_0001_22_39_H_._HHH_b1_08385_0001_0000100007_0000002_0_0001 (protein)
chain: SSSSSEELKELLEELEELAEEGDERQFAQLAAKIMRLIYELGDEEAAEELLRIAAKFLNRSSSSS
B8: il10ra_site1_normal_mot_HHH_b1_00999_000000080_0001_41_55_H_._HHH_b1_01870_0001_0000600018_0000001_0 (protein)
chain: SSSSSSSEEEVEELLEEAKEIDDPREAARVLQEATHIALRNQNPELLRLVWEVVKRLGSSSSSSS
B9: il10ra_site1_sap_17_mot_HHH_b1_06789_af2_000000041_0001_1_20_H_._HHH_b1_04606_0001_0000200023_0000001_0_0001 (protein)
chain: SSSSDLEEIVEEAKREAEELAERGNPREAAWVLFRAIHEALENNDQEASHELWKLMMELARSSSS
B10: il10ra_site1_normal_mot_HHH_b2_00441_000000147_0001_1_18_H_._HHH_b2_02785_af2_0001_0000500023_0000002_0_af2pred_0001 (protein)
chain: SSSSDDEERSIRKWFKLARRAIELGDEELVKRAIELLEQLAKRLNDEEAEELVKELKELLESSSS
B11: il10ra_site1_sap_19_mot_HHH_b2_03220_af2_000000223_0001_23_40_H_._HHH_b1_07213_0001_0000100001_0000001_0_0001 (protein)
chain: SSSSDEEQEELLRLLRKLVELLLRGDKEEAERLARELLELAEELNDEKVVHVVEDLEKTVSSSSS
B12: il10ra_site1_sap_19_mot_HHH_b2_03220_af2_000000223_0001_23_40_H_._HHH_b1_04502_af2_0001_0000300009_0000002_0_0001 (protein)
chain: SSSSSDQELLRLLLEAFRLLLRGNPEEAKEVLEQAREIAKEAGDERALRMAEDLLAVIEGSSSSS
B13: il10ra_site1_sap_21_mot_HHH_b2_02694_000000228_0001_1_18_H_._HHH_b2_03245_af2_0001_0000400023_0000001_0_0001 (protein)
chain: SSSSDEEQRVVELILRVVRLRANGNPEEAEEVLKEAKELAEELGDEELRRYVEIVERFVRSSSSS
B14: il10ra_site1_normal_mot_HHH_b2_07569_000000265_0001_38_56_H_._HHH_b2_04128_af2_0001_0000500024_0000002_0 (protein)
chain: SSSSSDIAEIAQEALRLAIRLGDQETVQEIWELVKRYFEKGDPEIEEALEELLEELEKRGSSSSS
B15: il10ra_site1_sap_27_mot_HHH_b1_01821_000000158_0001_23_39_H_._HHH_b1_07193_af2_0001_0000400018_0000001_0_0001 (protein)
chain: SSSSDEERSRAAQIAIRVYALAHQLGDEEAARRVARLLAEYIAKGDPEYLEQIEEIEERLRSSSS
B16: il10ra_site1_normal_mot_7f9b3cf633cfd27bca007b62ade1be3b_0001_1_000000138_0001_17_32_H_._HHH_b1_05277_0001_0000100013_0000001_1 (protein)
chain: SSSSSSSSEETLRFLIFALERAETEEQRRAALLFLEHLAEELNDEEAEEVVEEFKRRHSSSSSSS
B17: il10ra_site1_sap_27_mot_HHH_b2_01776_000000118_0001_38_52_H_._HHH_b2_02060_0001_0000100005_0000001_0_0001 (protein)
chain: SSSSSDEEAEELYELSREALRIDDPEEAEEVVEEAFELAEKAGNRVLLKNIEYLLRDLRSSSSSS
B18: il10ra_site1_normal_mot_HHH_b1_06789_af2_000000041_0001_1_20_H_._HHH_b2_03285_0001_0001000073_0000002_0 (protein)
chain: SSSSTAEFLVRQALKAAKLALEAGDPEYAERALQIARLSAEQANNPELEELVREVEEELRKSSSS
B19: il10ra_site1_normal_mot_HHH_b2_07784_af2_000000103_0001_19_36_H_._HHH_b2_01656_af2_0001_0000100001_0000002_0 (protein)
chain: SSSSNEWYREVKELIEEAVKALRNGDEELLEELLKRLEELAEEFNTPSVEFAVRLLEQARGSSSS
B20: il10ra_site1_sap_12_mot_HHH_b1_06348_000000162_0001_1_15_H_._HHH_b2_03914_0001_0000100003_0000001_0_0001 (protein)
chain: SSSSDEAEEEAERLLEEAKEIDDPEEFMRLIMEALHLALRGGDEELFQEIWRVVKEWAKKSSSSS
B21: il10ra_site1_normal_mot_HHH_b2_04275_000000272_0001_20_36_H_._HHH_b1_03935_0001_0000100004_0000001_1 (protein)
chain: SSSSDEESQELYELSREVAELEHEGDEEEAEELLEEAIKLAQELGNFAFLVQLEYLLRLLSSSSS
B22: il10ra_site1_normal_mot_HHH_b2_00277_af2_000000172_0001_1_17_H_._HHH_b2_05434_0001_0000100004_0000001_0_af2pred_0001 (protein)
chain: SSSSDREEVERLLEEAKELAERGNPEEASYLLVRAFAIATKNNNEELKELVKEVAQEVAHSSSSS
B23: il10ra_site1_sap_21_mot_HHH_b1_06789_af2_000000041_0001_1_20_H_._HHH_b2_02564_0001_0000200010_0000001_0_0001_af2pred_0001 (protein)
chain: SSSSSEEAEEATELLREAVELARNGNPEEAEEVLREAEELAREANSLVLRVIIEFLLKRLSSSSS
B24: il10ra_site1_normal_mot_8756ee2cf497b5429c717dfc0c0bcfd6_0001_000000186_0001_1_13_H_._HHH_b1_01781_af2_0001_0000400022_0000001_0_af2pred_0001 (protein)
chain: SSSSSEEAQELVRLIREAIRLLNEGNPEEAEEVAREAEELAREGNNLNLLAQIEFLLRRIESSSS

Biological target: il10ra, Q13651
Test: yeast display titration

| Binder | apparent Kd |
| --- | --- |
| B1 | inactive: no binding seen |
| B2 | inactive: no binding seen |
| B3 | inactive: no binding seen |
| B4 | inactive: no binding seen |
| B5 | inactive: no binding seen |
| B6 | inactive: no binding seen |
| B7 | inactive: no binding seen |
| B8 | inactive: no binding seen |
| B9 | inactive: no binding seen |
| B10 | inactive: no binding seen |
| B11 | inactive: no binding seen |
| B12 | inactive: no binding seen |
| B13 | inactive: no binding seen |
| B14 | inactive: no binding seen |
| B15 | inactive: no binding seen |
| B16 | inactive: no binding seen |
| B17 | inactive: no binding seen |
| B18 | inactive: no binding seen |
| B19 | inactive: no binding seen |
| B20 | inactive: no binding seen |
| B21 | inactive: no binding seen |
| B22 | inactive: no binding seen |
| B23 | inactive: no binding seen |
| B24 | inactive: no binding seen |

Some of the entries so far, as comma-separated lines:
Binder,apparent Kd
B9,inactive: no binding seen
B10,inactive: no binding seen
